Data: patent US20200385479A1
Results are given in words; binding and its absence hold for the method and conditions named. Some entries that bind do so weakly or less than the wild type.

What was measured:
[1] = target: cynomolgus monkey CD137 expressed on CHO cells (cynomolgus monkey); test: FACS on CHO cells over-expressing cynomolgus monkey CD137
[2] = target: cynomolgus monkey CD137 expressed on CHO cells (cynomolgus monkey); test: FACS on CHO cells over-expressing cynomolgus monkey CD137, goat F(ab')2 anti-human IgG-Fc PE

B1: LYV371 (11E10-IgG4) (antibody, V domains shown)
VH: QVQLQQSGAELVRPGASVTLSCKASGYTFAGFEMHWIKQTPVHGLGWIGAIDPKTGGTDYNQKFKDKALLTADKSSNTAYMELRSLTSEDSAVYYCTRDLGYFDVWGTGTTVTVSS
VL: DIQMTQTTSSLSASLGDRVTISCRASQDIRSNLNWYQQKPDGTVKLLIYYTSRLHSGVPSRFSGSGSGTDYSLTISNLEQEDIATYFCQQSEKLPRTFGGGTKLEIRR
binding [1]: binds | binding [2]: binds

B2: LYV390 (30C11-IgG4) (antibody, V domains shown)
VH: QIQLVQSGPELKKPGESVKISCKASGYTFTDYAMHWVKQAPGKALKWMGLINTYTGKPTYVDDLKGRFVFSLEASASTAKLQISNLKNEDTAIYFCARYYHDGTYYGWFANWGQGTLVTVSS
VL: DTVLTQSPALAVSPGERVTVSCGATESVSTALNWYQQKPGQQPRLLIYGASNLESGVPARFSGSGSGTDFTLSIDPVEADDTATYFCQQTWNDPLTFGSGTKLEIKR
binding [1]: binds | binding [2]: binds

B3: LYV402 (26B3-IgG4) (antibody, V domains shown)
VH: EVKLLESGGGLVQPGGSLKLSCAASGFDFSRYWMSWVRQAPGKGLEWIGEINPDSNPINYTPSLKDKFIISRDNAKNTLYLQMSKVRSEDTALYYCARDGSSSRYFDVWGAGTTVTVSS
VL: DIVMTQSPATLSVTPGDRVSLSCRASQSISDYLHWYQQKSHESPRLLIKYVSQSISGIPSRFSGSGSGSDFTLSINSVEPEDVGVYYCQNGHSFPPTFGGGTKLEIKR
binding [1]: binds | binding [2]: binds
